Data as given in PubChem BioAssay AID1259254 (NCATS, 2017)
Test: 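Genome-wide screen for genes that prevent DNA re-replication in cancer cells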 (primary screen). Cell system: human HCT116 colorectal cancer cells. Knock-down reagent: single siRNA against human genes. Timing: 3 days. Measured: 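Imaged Hoechst DNA stain sorts each cell into a cycle phase by DNA amount; per plate, G2 fraction set to 0% for non-targeting and 100% for GMNN siRNA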. Direction: G2 robust z-score: higher = more G2 cells, more excess DNA replication. Rule for the call: 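An siRNA counts as active if its G2 robust z-score lies at least 5 MADs above the screen median; here such calls match roughly 38% of GMNN control or more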.
The deposit covers about 59,000 reagents; this is a random part of them. In the full data, about 1,550 (2.6%) were called active. 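G2 share is only a proxy for re-replication; each gene was hit by three separate siRNAs, and active genes were retested.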 The numbers tell different reagents against one gene apart. Further read-outs or replicates are left out here. Reagent sequences are not shown. Not stated in the record: the amount of reagent.

PTGES3P1 (prostaglandin E synthase 3 pseudogene 1) #1 — G2 robust z-score = 0.719; outcome = inactive
PTGES3P1 (prostaglandin E synthase 3 pseudogene 1) #2 — G2 robust z-score = 2.08; outcome = inactive
PTGES3P1 (prostaglandin E synthase 3 pseudogene 1) #3 — G2 robust z-score = -0.137; outcome = inactive
MYORG (myogenesis regulating glycosidase) #1 — G2 robust z-score = 1.42; outcome = inactive
MYORG (myogenesis regulating glycosidase) #2 — G2 robust z-score = -0.676; outcome = inactive
MYORG (myogenesis regulating glycosidase) #3 — G2 robust z-score = 1.49; outcome = inactive
SNX5 (sorting nexin 5) #1 — G2 robust z-score = 0.294; outcome = inactive
SNX5 (sorting nexin 5) #2 — G2 robust z-score = 2.47; outcome = inactive
SNX5 (sorting nexin 5) #3 — G2 robust z-score = -0.0348; outcome = inactive
SLITRK2 (SLIT and NTRK like family member 2) #1 — G2 robust z-score = 1.74; outcome = inactive
SLITRK2 (SLIT and NTRK like family member 2) #2 — G2 robust z-score = -0.663; outcome = inactive
SLITRK2 (SLIT and NTRK like family member 2) #3 — G2 robust z-score = 1.58; outcome = inactive
NEO1 (neogenin 1) #1 — G2 robust z-score = 0.0279; outcome = inactive
NEO1 (neogenin 1) #2 — G2 robust z-score = -0.267; outcome = inactive
NEO1 (neogenin 1) #3 — G2 robust z-score = -1.2; outcome = inactive
PPP3R1 (protein phosphatase 3 regulatory subunit B, alpha) #1 — G2 robust z-score = -0.856; outcome = inactive
PPP3R1 (protein phosphatase 3 regulatory subunit B, alpha) #2 — G2 robust z-score = 1.98; outcome = inactive
PPP3R1 (protein phosphatase 3 regulatory subunit B, alpha) #3 — G2 robust z-score = -0.856; outcome = inactive
SCEL (sciellin) #1 — G2 robust z-score = 3.39; outcome = inactive
SCEL (sciellin) #2 — G2 robust z-score = 0.105; outcome = inactive
SCEL (sciellin) #3 — G2 robust z-score = 0.254; outcome = inactive
LRRC42 (leucine rich repeat containing 42) #1 — G2 robust z-score = 0.115; outcome = inactive
LRRC42 (leucine rich repeat containing 42) #2 — G2 robust z-score = -0.446; outcome = inactive
LRRC42 (leucine rich repeat containing 42) #3 — G2 robust z-score = -0.413; outcome = inactive
PLA2G5 (phospholipase A2 group V) #1 — G2 robust z-score = 0.3; outcome = inactive
PLA2G5 (phospholipase A2 group V) #2 — G2 robust z-score = -0.435; outcome = inactive
PLA2G5 (phospholipase A2 group V) #3 — G2 robust z-score = 0.362; outcome = inactive
THUMPD1 (THUMP domain 1 NAT10 acetyltransferase adaptor) #1 — G2 robust z-score = -0.389; outcome = inactive
THUMPD1 (THUMP domain 1 NAT10 acetyltransferase adaptor) #2 — G2 robust z-score = -1.08; outcome = inactive
THUMPD1 (THUMP domain 1 NAT10 acetyltransferase adaptor) #3 — G2 robust z-score = -0.786; outcome = inactive
